Out of some 360,000 compounds screened, about 7,500 (2.1%) were called active. This list was built around the results that the source calls inconclusive (neither active nor inactive); the mix of calls is not that of the screen. Calls come from the whole dose curve; as a rule, active = well fitted inhibition curve with a large enough effect; inconclusive = small, poorly fitted or top-dose-only effect, or effect the other way; inactive = flat fitted curve, though single readings scatter. Potencies of inconclusive entries are doubtful fits and often do not repeat.
Test: Nrf2 qHTS screen for inhibitors; note: nearly all actives have a fitted effect of over 60% in size
Details: A549 ARE-Fluc reporter, luciferase luminescence, 18-24 h; series mostly up to 46 µM
In short: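 A549 ARE_Fluc cells, 5000/well, 5% FBS OPTI-MEM; compounds in dose-response, 18-24 h at 37 °C/5% CO2; CellTiter-Fluor viability read (Ex 405/Em 525), then BugLite luciferase luminescence = Nrf2 activity.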
Potency is the fitted concentration of half-maximal effect.

| SMILES | Potency |
| --- | --- |
| O=C(Nc1ccc(Oc2ccccc2)nc1)C1CCCCN1Cc1ccco1 (stereo unspecified) | inconclusive: 8.2 µM [activator, partial curve] |
| CC(=O)Oc1ccc(/C=N/NC(=S)Nc2ccccc2)cc1 | inconclusive: 0.259 µM [activator, full curve, poor fit] |
| Cc1cc([N+](=O)[O-])ccc1NCc1ccccc1[N+](=O)[O-] | inactive |
| Cc1ccc(C(=O)CCC(=O)OCc2nnc(-c3ccccc3)o2)cc1 | inconclusive: 13 µM [activator, partial curve, poor fit] |
| Nc1ccc(O)cc1C(=O)OCC(=O)c1ccc(C2CCCCC2)cc1 | inactive |
| COc1ccccc1CNC(=O)CCC1N=C2c3ccccc3N=C(SCC(=O)NCC3CCCO3)N2C1=O (stereo unspecified) | inconclusive: 4.61 µM [falling, single point] |
| N#Cc1c(N)nc2c(c1-c1ccccc1)CCC2 | inactive |
| C=CCSc1nnc(NC(=O)c2ccc(S(=O)(=O)NCC3CCCO3)cc2)s1 (stereo unspecified) | inconclusive: 20.6 µM [falling, single point] |
| Cc1ccc(C(=O)NCCc2ccncc2)cc1 | inconclusive: 6.51 µM [activator, partial curve, poor fit] |
| COc1ccc(NS(=O)(=O)c2cc(NC(=O)c3cccc(OCc4c(C)noc4C)c3)ccc2OC)cc1 | inconclusive: 5.8 µM [falling, full curve] |
| c1ccc2c(c1)CCN(c1ncnc3c1[nH]c1ccccc13)C2 | active: 5.8 µM |
| CN(CC(=O)Nc1ccc(S(=O)(=O)N2CCOCC2)cc1)Cc1ccc(F)cc1 | inconclusive: 29.1 µM [falling, single point] |
| O=C(CC(Sc1ccc(Br)cc1)C(=O)O)c1ccc(F)cc1 (stereo unspecified) | inconclusive: 25.9 µM [falling, partial curve, poor fit] |
| CC(C)(C)c1ccc(-c2nnc(-c3ccccc3NC(=O)c3ccc(F)cc3F)o2)cc1 | inconclusive: 1.46 µM [activator, full curve, poor fit] |
| O=C(c1ccc(S(=O)(=O)Nc2cccc(C(F)(F)F)c2)cc1)N1CCC1 | inconclusive: 23.1 µM [falling, single point] |
| CC1(C)CC(N2CCN(c3ccccc3)CC2)=CC(=[N+]2CCCC2)C1 | inconclusive: 2.91 µM [falling, full curve] |
| Cc1ccc(CC2S/C(=C(/C#N)C(=O)N3CCOCC3)N(c3ccccc3)C2=O)cc1 (stereo unspecified) | inconclusive: 7.31 µM [activator, single point] |
| COc1ccc(N2CCN(CCCNC(=O)c3ccc4nc(N5CCCCC5)sc4c3)CC2)cc1 | inconclusive: 7.31 µM [falling, single point] |
| O=C(CCNC(=O)c1ccccc1Cl)Nc1cc(C(F)(F)F)ccc1N1CCCC1 | inconclusive: 18.4 µM [falling, single point] |
| C/C(=C\C(=O)c1ccccc1)Nc1ccc(O)cc1 | inconclusive: 18.4 µM [activator, partial curve] |
| Cc1cc2[nH]ncc2cc1NC(=S)NC(=O)c1ccccc1 | inconclusive: 29.1 µM [falling, single point] |
| CC(=O)Nc1ccc2oc(-c3cc(F)c(F)cc3Cl)nc2c1 | inactive |

Grouped by structure: the entries above containing a Cl atom.

| SMILES | Potency |
| --- | --- |
| O=C(CCNC(=O)c1ccccc1Cl)Nc1cc(C(F)(F)F)ccc1N1CCCC1 | inconclusive: 18.4 µM [falling, single point] |
| CC(=O)Nc1ccc2oc(-c3cc(F)c(F)cc3Cl)nc2c1 | inactive |

(listing goes on)

| SMILES | Potency |
| --- | --- |
| Cc1cccc(NC(=O)c2ccc(S(=O)(=O)N3CCCCCC3)cc2)n1 | inconclusive: 29.1 µM [falling, single point] |
| COc1ccc(CNS(=O)(=O)c2ccc(-n3cccn3)cc2)cc1 | inconclusive: 25.9 µM [falling, single point] |
| CN1C2CCC1/C(=C\c1ccc(F)cc1)C(=O)/C2=C/c1ccc(F)cc1 | inactive |
| CCOc1cc(NC2CS(=O)(=O)CC2O)c(OCC)cc1NC(=O)c1ccccc1 (stereo unspecified) | inconclusive: 29.1 µM [falling, single point] |
| O=C(NCc1cccc(Br)c1)C1CC(c2ccccc2[N+](=O)[O-])=NO1 (stereo unspecified) | inactive |
| C=CCc1ccccc1OCCNCc1ccccc1 | inconclusive: 2.31 µM [falling, full curve] |
| COc1ccc2cnn(-c3ccc(OC(F)(F)F)cc3)c(=O)c2c1OC | inconclusive: 4.11 µM [activator, full curve, poor fit] |
| Cc1ccc(C(=O)c2cnc3ccccc3c2-c2ccccc2)cc1 | inconclusive: 29.1 µM [falling, single point] |
| COc1cc(/C=C2/SC(=S)N(Cc3ccccc3)C2=O)cc(Cl)c1O | inconclusive: 10.3 µM [falling, partial curve, poor fit] |
| CCc1ccc(NC(=O)C2CCCN(S(=O)(=O)c3cccs3)C2)cc1 (stereo unspecified) | inconclusive: 23.1 µM [falling, partial curve] |
| COc1ccc(-c2cc(C(=O)N3CCN(c4ccccc4F)CC3)c3ccccc3n2)c(OC)c1 | inconclusive: 29.1 µM [falling, single point] |
| NCCCN(Cc1ccccc1)c1ccc(Br)cn1 | inconclusive: 18.4 µM [activator, partial curve, poor fit] |
| COc1ccc(CCC(=O)OCC(=O)Nc2ccccc2)cc1 | inconclusive: 29.1 µM [activator, single point] |
| COc1ccc2c(Sc3ccc(Cl)cc3)c(C(=O)N3CCCCC3)[nH]c2c1 | active: 20.6 µM |
| COc1ccc(N2CCN(C3CCCN(S(=O)(=O)c4ccc(C)cc4C)C3)CC2)cc1 (stereo unspecified) | inconclusive: 18.4 µM [falling, single point] |
| CC1SC(=S)N(c2ccc(N(C)C)cc2)C1=O (stereo unspecified) | inconclusive: 29.1 µM [activator, single point] |
| Cc1ccc(C(=O)CCC(=O)Nc2cccc(C(F)(F)F)c2)cc1 | inconclusive: 29.1 µM [falling, single point] |
| COc1ccc(O)c(C(=O)CC(=O)c2cccnc2)c1 | inconclusive: 18.4 µM [activator, partial curve] |
| Cc1ccc(-n2nnnc2SC(C)C(=O)NCC(=O)Nc2ccc(F)c(F)c2F)c(C)c1 (stereo unspecified) | inconclusive: 29.1 µM [falling, single point] |
| CN1CCN(c2ccccc2NC(=O)C(Cc2ccccc2)n2cccc2)CC1 (stereo unspecified) | inactive |
| CC(=O)N1CC=CC1(CC(C)C)C(=O)NCCN1CCOCC1 (stereo unspecified) | inconclusive: 25.9 µM [activator, single point] |
| COc1ccc(OC)c(C(=O)N2CCCC(Nc3ccc(F)cc3)C2)c1 (stereo unspecified) | inconclusive: 6.51 µM [falling, single point] |

As a short view, two of the compounds above:

| SMILES | Potency |
| --- | --- |
| CCOc1cc(NC2CS(=O)(=O)CC2O)c(OCC)cc1NC(=O)c1ccccc1 (stereo unspecified) | inconclusive: 29.1 µM [falling, single point] |
| O=C(NCc1cccc(Br)c1)C1CC(c2ccccc2[N+](=O)[O-])=NO1 (stereo unspecified) | inactive |

Later entries

| SMILES | Potency |
| --- | --- |
| O=C(NCc1ccc(F)cc1)c1ccc(CS(=O)Cc2ccccc2Cl)o1 (stereo unspecified) | inconclusive: 20.6 µM [falling, single point] |
| CC(C)(C)NC(=O)NC(=O)CN1CCN(S(=O)(=O)/C=C/c2ccccc2)CC1 | inconclusive: 29.1 µM [falling, partial curve, poor fit] |
| CCN1CCN(c2ccc(S(=O)(=O)N3CCCCC3)cc2NC(=O)c2ccc(C)c(C)c2)CC1 | inconclusive: 23.1 µM [falling, single point] |
| O=C(CCc1nc2ccccc2c(=O)[nH]1)N1CCN(c2ccc(F)cc2)CC1 | active: 16.4 µM |
| COc1cc(C(=O)NC2CCCc3ccccc32)cc(OC)c1OC (stereo unspecified) | inconclusive: 2.06 µM [falling, partial curve, poor fit] |
| CCCN1CCN(C2CCCCC2NS(=O)(=O)c2ccccc2)CC1 (stereo unspecified) | inconclusive: 18.4 µM [activator, single point] |
| CCOc1ccc2nc(C(C)O)[nH]c2c1 (stereo unspecified) | inactive |
| Cc1ccc(/C(N)=N/OC(=O)c2ccc(Cl)cc2Cl)cc1 | inconclusive: 1.84 µM [activator, full curve] |
| N/C(=N\OC(=O)c1ccoc1)c1ccc(Br)cc1 | inconclusive: 18.4 µM [activator, partial curve] |
| CC(NC1=CC(=O)c2cccnc2C1=O)C(O)c1ccccc1 (stereo unspecified) | inconclusive: 18.4 µM [falling, single point] |
| CCCCSc1nc2sc3c(c2c(=O)n1-c1ccccc1)CCN(C)C3 | inconclusive: 20.6 µM [falling, partial curve, poor fit] |
| COc1ccc(-c2cc(C(F)(F)F)n3nc(C(=O)Nc4sc5c(c4C#N)CCC(C)C5)cc3n2)cc1OC (stereo unspecified) | inactive |
| CC(=O)NS(=O)(=O)c1ccc(NC(=O)c2ccc(NC(=O)c3cccs3)cc2)cc1 | inactive |
| CCOC(=O)C1CCN(C(=O)c2cc3ccc4ccc(C)[nH]c4c3n2)CC1 | inconclusive: 29.1 µM [falling, single point] |
| Cc1cccc(-c2ncc(S(=O)(=O)C(C)(C)C)c(N)n2)c1 | inconclusive: 6.51 µM [activator, partial curve] |
| COC(=O)c1ccc(-c2cc3onc(-c4ccccc4)c3c(=O)n2C)cc1 | inconclusive: 11.6 µM [activator, partial curve, poor fit] |
| CCOC(=O)c1cc(-c2ccc(Cl)cc2)nc2c1c(C)nn2CCC#N | inconclusive: 11.6 µM [falling, partial curve] |
| COc1ccc2c(c1)c1c(c(=O)n(Cc3ccccc3)c(=O)n1Cc1ccc(C)cc1)n2C | inactive |
| Cc1ccc(-n2ncc(C(=O)NCCCN3CCc4ccccc4C3)c2C2CCN(C(=O)OC(C)(C)C)CC2)cc1C | inactive |
| COc1ccc(S(=O)(=O)n2ccnc2)c2cccnc12 | inactive |
| COc1ccc(N2CCN(c3nc4c(c(=O)[nH]c(=O)n4C)n3Cc3cccc(C)c3)CC2)cc1 | inconclusive: 29.1 µM [falling, single point] |
| Cc1ccc(C)c(NC(=S)N(Cc2ccco2)C(C)c2cccs2)c1 (stereo unspecified) | inactive |

— PubChem BioAssay AID504444 (National Center for Advancing Translational Sciences (NCATS), 2011)
